{"source": "PubChem BioAssay AID1508597 (Cure First, 2020)", "test": "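Knock-downs altering ovarian cancer cell survival with or without PARP inhibitor rucaparib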 (primary screen)", "cell system": "human ovarian carcinoma lines grown from tumours: OCI-P5x (papillary serous) and OCI-C5x (clear cell)", "reagents": "siRNA pool against human genes, 1.25 pmol siRNA per well", "time to read-out": "72 h or 96 h, depending on the cell culture", "treatment": "rucaparib 20 µM (about IC30) or vehicle, present until read-out", "read-out": "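ATP luminescence measured at 72 or 96 h according to the culture, then normalised and expressed as percent viability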", "scale": "viability, normalised: higher = more viable cells remaining", "hit rule": "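Active when normalised viability falls below 80 percent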", "calls": "active = viability under 80%; inactive = viability 80% or more", "note": "Shown is one part, drawn at random, of about 2,100 reagents tested. 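Calls flag viability under 80% in either arm, not effects specific to rucaparib; the reference for percent is not stated.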 A reagent listed more than once was tested more than once; the source does not tell the runs apart. Reagent sequences are not shown. Not stated in the record: the 100% reference."}
{"Gene": "RAD54L", "rucaparib or vehicle": "Rucaparib", "cell line": "OCI-C5x (clear cell)", "technical replicate": "1", "viability, normalised (%)": 37.5, "activity call": "active"}
{"Gene": "RAD54L", "rucaparib or vehicle": "Rucaparib", "cell line": "OCI-C5x (clear cell)", "technical replicate": "1", "viability, normalised (%)": 40.9, "activity call": "active"}
{"Gene": "RAD54L", "rucaparib or vehicle": "Rucaparib", "cell line": "OCI-C5x (clear cell)", "technical replicate": "2", "viability, normalised (%)": 43.4, "activity call": "active"}
{"Gene": "RAD54L", "rucaparib or vehicle": "Rucaparib", "cell line": "OCI-C5x (clear cell)", "technical replicate": "2", "viability, normalised (%)": 39.9, "activity call": "active"}
{"Gene": "RAD54L", "rucaparib or vehicle": "Rucaparib", "cell line": "OCI-C5x (clear cell)", "technical replicate": "3", "viability, normalised (%)": 40.6, "activity call": "active"}
{"Gene": "RAD54L", "rucaparib or vehicle": "Rucaparib", "cell line": "OCI-C5x (clear cell)", "technical replicate": "3", "viability, normalised (%)": 39, "activity call": "active"}
{"Gene": "RAD54L", "rucaparib or vehicle": "Rucaparib", "cell line": "OCI-P5x (serous)", "technical replicate": "1", "viability, normalised (%)": 37.5, "activity call": "active"}
{"Gene": "RAD54L", "rucaparib or vehicle": "Rucaparib", "cell line": "OCI-P5x (serous)", "technical replicate": "1", "viability, normalised (%)": 67.5, "activity call": "active"}
{"Gene": "RAD54L", "rucaparib or vehicle": "Rucaparib", "cell line": "OCI-P5x (serous)", "technical replicate": "2", "viability, normalised (%)": 41.9, "activity call": "active"}
{"Gene": "RAD54L", "rucaparib or vehicle": "Rucaparib", "cell line": "OCI-P5x (serous)", "technical replicate": "2", "viability, normalised (%)": 79.1, "activity call": "active"}
{"Gene": "RAD54L", "rucaparib or vehicle": "Rucaparib", "cell line": "OCI-P5x (serous)", "technical replicate": "3", "viability, normalised (%)": 71.9, "activity call": "active"}
{"Gene": "RAD54L", "rucaparib or vehicle": "Rucaparib", "cell line": "OCI-P5x (serous)", "technical replicate": "3", "viability, normalised (%)": 41.2, "activity call": "active"}
{"Gene": "RAD54L", "rucaparib or vehicle": "Vehicle", "cell line": "OCI-C5x (clear cell)", "technical replicate": "1", "viability, normalised (%)": 37.9, "activity call": "active"}
{"Gene": "RAD54L", "rucaparib or vehicle": "Vehicle", "cell line": "OCI-C5x (clear cell)", "technical replicate": "1", "viability, normalised (%)": 41.4, "activity call": "active"}
{"Gene": "RAD54L", "rucaparib or vehicle": "Vehicle", "cell line": "OCI-C5x (clear cell)", "technical replicate": "2", "viability, normalised (%)": 39.9, "activity call": "active"}
{"Gene": "RAD54L", "rucaparib or vehicle": "Vehicle", "cell line": "OCI-C5x (clear cell)", "technical replicate": "2", "viability, normalised (%)": 41.6, "activity call": "active"}
{"Gene": "RAD54L", "rucaparib or vehicle": "Vehicle", "cell line": "OCI-C5x (clear cell)", "technical replicate": "3", "viability, normalised (%)": 56.4, "activity call": "active"}
{"Gene": "RAD54L", "rucaparib or vehicle": "Vehicle", "cell line": "OCI-C5x (clear cell)", "technical replicate": "3", "viability, normalised (%)": 59.2, "activity call": "active"}
{"Gene": "RAD54L", "rucaparib or vehicle": "Vehicle", "cell line": "OCI-P5x (serous)", "technical replicate": "1", "viability, normalised (%)": 60.2, "activity call": "active"}
{"Gene": "RAD54L", "rucaparib or vehicle": "Vehicle", "cell line": "OCI-P5x (serous)", "technical replicate": "1", "viability, normalised (%)": 53.5, "activity call": "active"}
{"Gene": "RAD54L", "rucaparib or vehicle": "Vehicle", "cell line": "OCI-P5x (serous)", "technical replicate": "2", "viability, normalised (%)": 55, "activity call": "active"}
{"Gene": "RAD54L", "rucaparib or vehicle": "Vehicle", "cell line": "OCI-P5x (serous)", "technical replicate": "2", "viability, normalised (%)": 47.8, "activity call": "active"}
{"Gene": "RAD54L", "rucaparib or vehicle": "Vehicle", "cell line": "OCI-P5x (serous)", "technical replicate": "3", "viability, normalised (%)": 63.9, "activity call": "active"}
{"Gene": "RAD54L", "rucaparib or vehicle": "Vehicle", "cell line": "OCI-P5x (serous)", "technical replicate": "3", "viability, normalised (%)": 65, "activity call": "active"}

The list goes on (5 carried over from the part before).
{"Gene": "RAD54L", "rucaparib or vehicle": "Vehicle", "cell line": "OCI-P5x (serous)", "technical replicate": "1", "viability, normalised (%)": 53.5, "activity call": "active"}
{"Gene": "RAD54L", "rucaparib or vehicle": "Vehicle", "cell line": "OCI-P5x (serous)", "technical replicate": "2", "viability, normalised (%)": 55, "activity call": "active"}
{"Gene": "RAD54L", "rucaparib or vehicle": "Vehicle", "cell line": "OCI-P5x (serous)", "technical replicate": "2", "viability, normalised (%)": 47.8, "activity call": "active"}
{"Gene": "RAD54L", "rucaparib or vehicle": "Vehicle", "cell line": "OCI-P5x (serous)", "technical replicate": "3", "viability, normalised (%)": 63.9, "activity call": "active"}
{"Gene": "RAD54L", "rucaparib or vehicle": "Vehicle", "cell line": "OCI-P5x (serous)", "technical replicate": "3", "viability, normalised (%)": 65, "activity call": "active"}
{"Gene": "GDPD4", "rucaparib or vehicle": "Rucaparib", "cell line": "OCI-C5x (clear cell)", "technical replicate": "1", "viability, normalised (%)": 58.3, "activity call": "active"}
{"Gene": "GDPD4", "rucaparib or vehicle": "Rucaparib", "cell line": "OCI-C5x (clear cell)", "technical replicate": "2", "viability, normalised (%)": 45.5, "activity call": "active"}
{"Gene": "GDPD4", "rucaparib or vehicle": "Rucaparib", "cell line": "OCI-C5x (clear cell)", "technical replicate": "3", "viability, normalised (%)": 42.7, "activity call": "active"}
{"Gene": "GDPD4", "rucaparib or vehicle": "Rucaparib", "cell line": "OCI-P5x (serous)", "technical replicate": "1", "viability, normalised (%)": 49.1, "activity call": "active"}
{"Gene": "GDPD4", "rucaparib or vehicle": "Rucaparib", "cell line": "OCI-P5x (serous)", "technical replicate": "2", "viability, normalised (%)": 40.2, "activity call": "active"}
{"Gene": "GDPD4", "rucaparib or vehicle": "Rucaparib", "cell line": "OCI-P5x (serous)", "technical replicate": "3", "viability, normalised (%)": 36.9, "activity call": "active"}
{"Gene": "GDPD4", "rucaparib or vehicle": "Vehicle", "cell line": "OCI-C5x (clear cell)", "technical replicate": "1", "viability, normalised (%)": 9.52, "activity call": "active"}
{"Gene": "GDPD4", "rucaparib or vehicle": "Vehicle", "cell line": "OCI-C5x (clear cell)", "technical replicate": "2", "viability, normalised (%)": 38, "activity call": "active"}
{"Gene": "GDPD4", "rucaparib or vehicle": "Vehicle", "cell line": "OCI-C5x (clear cell)", "technical replicate": "3", "viability, normalised (%)": 35.9, "activity call": "active"}
{"Gene": "GDPD4", "rucaparib or vehicle": "Vehicle", "cell line": "OCI-P5x (serous)", "technical replicate": "1", "viability, normalised (%)": 40.1, "activity call": "active"}
{"Gene": "GDPD4", "rucaparib or vehicle": "Vehicle", "cell line": "OCI-P5x (serous)", "technical replicate": "2", "viability, normalised (%)": 42.3, "activity call": "active"}
{"Gene": "GDPD4", "rucaparib or vehicle": "Vehicle", "cell line": "OCI-P5x (serous)", "technical replicate": "3", "viability, normalised (%)": 48.8, "activity call": "active"}
